# Source: US7122628 (dated 2006)
# How the values were obtained:
# [1] = Boc solid-phase peptide synthesis; Merrifield resin; DIC; HOBT in D-Trp, Tyr, Ser and Trp couplings; conditions: whole synthesis
# [2] = general procedure: Boc solid-phase peptide synthesis; Merrifield resin; DIC; HOBT in D-Trp, Tyr, Ser and Trp couplings; conditions: whole synthesis
substance,measurement,setting,value
pGlu-His-Trp-Ser-Tyr-D-Trp-Leu-Arg-Pro-Gly-NH2,isolated mass,[1],8.4 gm
same,final purity (method not given),[2],>99%
same,isolated yield,[2],59%
